# Source: patent publication US20110287953A1, “METHOD FOR DISCOVERING POTENTIAL DRUGS” (priority 2010, published 2011)
# Key:
# [1] = test system: HCC cell lines, Mahlavu, PLC5, HepG2, and Huh7; experiment: MTT cell viability test in HCC cell lines; details: 72 h, Table 3-1
# Method: (§1) The HCC cell lines, Mahlavu, PLC5, HepG2, and Huh7, were cultured in Dulbecco's Modified Eagle Medium (DMEM; Seromed, Berlin, Germany) supplemented with 10% heat-inactivated fetal bovine serum, 100 μg/ml streptomycin, 100 μg/ml penicillin, and 2 mM L-glutamine in a humidified atmosphere containing 5% CO2 at 37° C. […] The cells were exposed to different concentrations of the small molecules for 72 hours. Control cells were incubated in the absence of small molecules. Afterwards, the cells were incubated with medium containing MTT for 2 hours. […] For the clonogenic assay, Huh7 cells were seeded out in appropriate dilutions in a 6-well plate and treated with selected small molecules at various concentrations for 15 days. Colonies were fixed with glutaraldehyde (6.0% v/v), stained with crystal violet (0.5% w/v), and counted.
# [2] = test system: HCC cell lines; experiment: Drug efficacy label of top 10 CMap drugs (MTT or clonogenic); type: cell-based; details: Table 2-3; labels (1) and (4); gene set in which the drug ranked top 10;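 also: label 1 means effective by MTT or clonogenic assay and 4 means ineffective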
# Method: as §1
IC50 [1] [µM],SMILES,drug efficacy label [2]
5 to 10,CN1CCN(CCCN2c3ccccc3Sc3ccc(Cl)cc32)CC1 [prochlorperazine],
5 to 10,Clc1ccc(CSC(Cn2ccnc2)c2ccc(Cl)cc2Cl)cc1 (stereo not drawn) [sulconazole],sulconazole (1)
